PubChem BioAssay AID1117269, University of Michigan, 2014
In all, the deposit lists 714 reagents; below is an unselected part. 49 of them (6.9%) count as active. 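Active means a hit in at least one line; per-line hit columns show which; some siRNA pools appear more than once.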 A reagent listed more than once was tested more than once; the source does not tell the runs apart. Not given: the amount of reagent.

Screen: 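Kinases whose silencing alters a TGF-beta responsive luciferase reporter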 (primary screen)
Cells: human A549 lung cancer and 1833 breast cancer (MDA-MB-231-derived) cell lines carrying a stable BTR luciferase reporter
Reagent: siRNA pool against human genes
Time to read-out: 72 h after transfection, then 1 h TGF-beta before the read
Conditions: TGF-beta 10 ng/mL added one hour before luciferin and read-out
Measured: 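BTR reporter bioluminescence as fold change relative to non-targeting siRNA, averaging triplicates per line; knockdown for 72 h, then TGF-beta at 10 ng/mL 1 h prior to reading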
Reading the numbers: fold over scrambled siRNA, A549 and fold over scrambled siRNA, 1833: higher = more reporter light, weaker TGF-beta receptor signalling
Active means: 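Hit in either line counts as active; per-line hits lie above an upper limit from quartiles of averaged log fold values, in plate and screen-wide analyses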
Meaning of the calls: active = hit in at least one line; inactive = hit in neither line

Gene	fold over scrambled siRNA, A549	fold over scrambled siRNA, 1833	hit in A549	hit in 1833	Call
PRP4K	0.619	2.52	not a hit in A549	not a hit in 1833	inactive
TSSK1B	3.69	1.1	not a hit in A549	not a hit in 1833	inactive
TSSK1B	3.08	1.88	not a hit in A549	not a hit in 1833	inactive
UCK1	1.71	7.98	not a hit in A549	not a hit in 1833	inactive
RPS6KA1	2.84	3.04	not a hit in A549	not a hit in 1833	inactive
ACVR1C	2.46	4.87	not a hit in A549	not a hit in 1833	inactive
IGF2R	1.97	2.63	not a hit in A549	not a hit in 1833	inactive
JAK2	17.3	18.8	hit in A549	hit in 1833	active
LTK	1.39	2.75	not a hit in A549	not a hit in 1833	inactive
OBSCN	2.63	4.93	not a hit in A549	not a hit in 1833	inactive
DCLK1	1.33	1.43	not a hit in A549	not a hit in 1833	inactive
DBF4	1.22	4.26	not a hit in A549	not a hit in 1833	inactive
PDPK1	1.81	1.05	not a hit in A549	not a hit in 1833	inactive
CHEK1	0.897	2	not a hit in A549	not a hit in 1833	inactive
LMBR1	3.38	6.19	not a hit in A549	not a hit in 1833	inactive
ITPKC	1.78	2	not a hit in A549	not a hit in 1833	inactive
EPHA6	0.458	0.556	not a hit in A549	not a hit in 1833	inactive
CDK5	1.14	1.41	not a hit in A549	not a hit in 1833	inactive
MAPK1	1.91	5.53	not a hit in A549	not a hit in 1833	inactive
GSK3B	3.29	4.33	not a hit in A549	not a hit in 1833	inactive
BMX	4.21	2.15	not a hit in A549	not a hit in 1833	inactive
DYRK2	5.13	12.1	not a hit in A549	hit in 1833	
MAP3K15	2.4	17.9	not a hit in A549	hit in 1833	
PTK2	4.48	7.16	not a hit in A549	not a hit in 1833	inactive
RPS6KL1	0.477	2.13	not a hit in A549	not a hit in 1833	inactive
STK25	2.16	1.4	not a hit in A549	not a hit in 1833	inactive
MAP3K5	2.57	2.33	not a hit in A549	not a hit in 1833	inactive
CDK15	3.18	3.87	not a hit in A549	not a hit in 1833	inactive
ROR1	1.23	1.3	not a hit in A549	not a hit in 1833	inactive
CDK11B	1.43	2.87	not a hit in A549	not a hit in 1833	inactive
PRKY	0.869	2.22	not a hit in A549	not a hit in 1833	inactive
COMMD3	3.1	2.31	not a hit in A549	not a hit in 1833	inactive
FLT1	4.62	5	not a hit in A549	not a hit in 1833	inactive
NPR2	5.06	3.4	not a hit in A549	not a hit in 1833	inactive
STK11	0.634	1.27	not a hit in A549	not a hit in 1833	inactive
TEX14	0.644	1.1	not a hit in A549	not a hit in 1833	inactive
NRK	1.61	0.741	not a hit in A549	not a hit in 1833	inactive
BTK	3.51	4.57	not a hit in A549	not a hit in 1833	inactive
PKIA	0.752	0.857	not a hit in A549	not a hit in 1833	inactive
HIPK3	1.76	0.857	not a hit in A549	not a hit in 1833	inactive
TTK	2.29	2.91	not a hit in A549	not a hit in 1833	inactive
MAGI1	0.524	1	not a hit in A549	not a hit in 1833	inactive
ERBB2	4.51	3.29	not a hit in A549	not a hit in 1833	inactive
ITK	1.78	3.87	not a hit in A549	not a hit in 1833	inactive
COQ8B	0.919	2.86	not a hit in A549	not a hit in 1833	inactive
PFKP	4.58	3.6	not a hit in A549	not a hit in 1833	inactive
CRIM1	3.24	3.6	not a hit in A549	not a hit in 1833	inactive
NUAK1	0.627	2.26	not a hit in A549	not a hit in 1833	inactive
PNCK	5.08	4.37	not a hit in A549	not a hit in 1833	inactive
MKNK2	1.06	2.2	not a hit in A549	not a hit in 1833	inactive
PKDCC	0.86	2.8	not a hit in A549	not a hit in 1833	inactive
CDK14	1.6	6.47	not a hit in A549	not a hit in 1833	inactive
PBK	4.29	2.15	not a hit in A549	not a hit in 1833	inactive
PRKAG1	6.93	8.29	hit in A549	not a hit in 1833	active
VRK3	3.15	1.48	not a hit in A549	not a hit in 1833	inactive
RPS6KA3	2.04	0.857	not a hit in A549	not a hit in 1833	inactive
LMTK1	2.57	27.3	not a hit in A549	hit in 1833	
FES	2.52	2.38	not a hit in A549	not a hit in 1833	inactive
TP53RK	3.81	4.9	not a hit in A549	not a hit in 1833	inactive
ULK4	1	1.4	not a hit in A549	not a hit in 1833	inactive
ALDH18A1	1.05	1.6	not a hit in A549	not a hit in 1833	inactive
TBCK	1.54	1.42	not a hit in A549	not a hit in 1833	inactive
NRBP1	1.43	3.52	not a hit in A549	not a hit in 1833	inactive
DGKA	1.78	1.13	not a hit in A549	not a hit in 1833	inactive
PIK3R2	0.679	1.2	not a hit in A549	not a hit in 1833	inactive
MOK	3.49	14.6	not a hit in A549	hit in 1833	
RET	0.476	1.05	not a hit in A549	not a hit in 1833	inactive
KDR	1.81	3.68	not a hit in A549	not a hit in 1833	inactive
MAP4K4	3.29	5.92	not a hit in A549	not a hit in 1833	inactive
MAPKAPK3	2.03	1.84	not a hit in A549	not a hit in 1833	inactive
YES1	1.98	2.38	not a hit in A549	not a hit in 1833	inactive
PIK3R5	0.808	0.762	not a hit in A549	not a hit in 1833	inactive
BRAF	1.1	1.29	not a hit in A549	not a hit in 1833	inactive

Records above called active:
Gene	fold over scrambled siRNA, A549	fold over scrambled siRNA, 1833	hit in A549	hit in 1833	Call
JAK2	17.3	18.8	hit in A549	hit in 1833	active
PRKAG1	6.93	8.29	hit in A549	not a hit in 1833	active
